According to PubChem BioAssay AID2417 (National Center for Advancing Translational Sciences (NCATS), 2010):
Screen size: about 140,000 compounds; about 4,300 (3.1%) were called active. The shares of active, inactive and inconclusive entries below differ from those in the screen.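 Rule for the calls: active = readout at or below -70, meaning at least 70% loss of cells showing the perinucleolar compartment, a nuclear body marking cancer cells; inconclusive = readout between -30 and a set limit; inactive = the rest.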

experiment: High Content Assay for Compounds that inhibit the Assembly of the Perinucleolar Compartment; settings: PC3M PTB-GFP, PNC prevalence imaging, 16 h; at 10 µM; stronger effect = lower value;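 note: plate controls were DMSO wells for no effect and camptothecin positive control wells for full effect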
Method in brief: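 Compounds are pinned in duplicate onto adhered PC3M cells stably expressing GFP-tagged PTB and incubated 16 h at 37 C. Cells are then fixed, nuclei stained with Hoechst, and PNC-positive cells counted.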

Row | Structure (SMILES) | activity change (PNC), negative = inhibition
1 | CCc1ccc(N(CC(=O)NC2CCCC2)S(=O)(=O)c2c(C)noc2C)cc1 | inconclusive: -42.2%
2 | CCN(C(=S)NC(=O)CCc1ccccc1)c1ccccc1 | inconclusive: -50.8%
3 | CCC(=O)N1CCc2cc(S(=O)(=O)NCCN3CCC(C)CC3)ccc21 | inactive: 20.4%
4 | CCC(=O)Nc1nc2ccc(S(C)(=O)=O)cc2s1 | active: -100%
5 | Cc1cccc2cc(CN(Cc3ccco3)C(c3nnnn3CCc3ccccc3)C(C)C)c(=O)[nH]c12 (centres undefined) | active: -99.3%
6 | NC(=O)c1ccccc1NC(=O)CN1CCOCC1 | inconclusive: -60.7%
7 | CCc1nnc(NC(=O)CSc2nnc(-c3ccncc3)n2C)s1 | active: -100%
8 | Cc1cc(=O)n2nc(N3CCCC(C(=O)N4CCN(c5ccccc5)CC4)C3)sc2n1 (centres undefined) | active: -117%
9 | CCCN1C(=O)C2(/C(=C(\O)c3ccc4c(c3)OCCO4)C(=O)C(=O)N2CCCOC)c2ccccc21 (centres undefined) | inactive: 22.8%
10 | CCc1ccc(C(=O)NCc2ccc(Cl)cc2)cc1 | inactive: 29.2%
11 | Cc1ccc(C(O)c2nc3ccccc3n2C(C)C)cc1 (centres undefined) | inconclusive: -44.5%
12 | CN1CCN(CC(=O)Nc2nnc(-c3cccs3)s2)CC1 | inactive: -28.8%
13 | COc1ccc2[nH]c(C)c(CCNC(=S)Nc3cc(C)cc(C)c3)c2c1 | inconclusive: -30.2%
14 | Nc1ccc(N2CCN(c3ccc(Cl)c(Cl)c3)CC2)cc1 | inconclusive: -52.6%
15 | CCOC(=O)c1ccc(NC(=S)NCCc2ccccc2)cc1 | inconclusive: -38.5%
16 | CCOc1cc(S(=O)(=O)NCc2ccco2)c(OCC)cc1-n1cnnn1 | inconclusive: -42.4%
17 | CN(C)CCCOC(=O)COc1ccc(C(C)(C)C)cc1 | inactive: 23.3%
18 | Cc1ccc(/C=C/C(=O)c2ccccc(=O)c2O)c(C)c1 | inconclusive: -55.6%
19 | O=C(CCCCl)Oc1ccc2cc(-c3ccc4ccccc4n3)c(=O)oc2c1 | inactive: -22.7%
20 | Oc1ccccc1-c1cc(-c2ccccc2)no1 | inconclusive: -48%

Row | Structure (SMILES) | activity change (PNC), negative = inhibition
21 | O=c1cc(-c2ccco2)oc2ccc(Cl)cc12 | inconclusive: -48.7%
22 | CC(Sc1ccc(Cl)cc1)C(=O)Nc1ccccc1C(=O)N1CCOCC1 (centres undefined) | inconclusive: -40.8%
23 | OC(C#CCN1CCOCC1)(c1ccccc1)C1CC1 (centres undefined) | inconclusive: -69.8%
24 | O=C(COC(=O)c1ccc2ccccc2n1)Nc1ncc(C(F)(F)F)cc1Cl | inactive: -1.21%
25 | Cc1ccc(C(=O)N/N=C(/CC(=O)c2cccs2)C(F)(F)F)cc1 | inactive: -21%
26 | NC(=O)c1cc(N2C(=O)C3CC=CCC3C2=O)ccc1N1CCCCC1 (centres undefined) | inconclusive: -33.7%
27 | COc1cc(OC)cc(-c2nc3ccccc3c(=O)n2OC(=O)c2ccc(Br)cc2)c1 | active: -116%
28 | COc1ccc(OCC(=O)N2CCN(c3cccc(Cl)c3)CC2)cc1 | inactive: 12.2%
29 | O=C(c1ccccc1)N1CCN(Cc2c[nH]c3ccccc23)CC1 | inactive: 56.1%
30 | CC1=NN(c2ccccc2)C(=O)/C1=C/c1cccs1 | inconclusive: -38.4%
31 | Cc1ccccc1NS(=O)(=O)c1cc(S(C)(=O)=O)ccc1Cl | inactive: 16.5%
32 | O=C(Cn1nnc(-c2ccccc2NC(=O)c2cccs2)n1)Nc1ccccc1 | inconclusive: -35.6%
33 | CCOC(=O)N1CCN(c2ccc(Cl)c(Cl)c2)CC1 | inconclusive: -40.5%
34 | CC(C)(C)c1cc(NC(=O)C2CCCO2)no1 (centres undefined) | inconclusive: -42%
35 | Cc1ccc(-c2nnc3n2N=C(c2ccc(Br)cc2)CS3)cc1 | active: -106%
36 | CCOc1ccc(C2C(C#N)=C(N)SC(N)=C2C#N)cc1OC | inconclusive: -50%
37 | CCC(=O)c1cc2c(C)cc(=O)oc2c(C)c1OC(=O)C(C)C | inactive: -6.9%
38 | Cc1cccc(N2CCN(C(=O)C(C)n3nc(C)n4c(cc5occc54)c3=O)CC2)c1C (centres undefined) | inactive: 34.8%
39 | CCCCCc1nnc(NC(=O)Cn2cnc3ccccc3c2=O)s1 | active: -111%
40 | CCCCCOC(=O)C1=C(C)Nc2ncnn2C1c1cccs1 (centres undefined) | inconclusive: -31.8%

Row | Structure (SMILES) | activity change (PNC), negative = inhibition
41 | Cc1ccc(S(=O)(=O)c2cc3cc(Br)ccc3oc2=O)cc1 | inactive: 97.6%
42 | O=S(=O)(Nc1cccnc1)c1cccs1 | inactive: -26.3%
43 | Cc1nc(CS(=O)(=O)c2ccccc2)cc(Sc2ccc(Cl)cc2Cl)n1 | inconclusive: -49.9%
44 | COc1ccc(/C=C/C(=O)Nc2cc(C)on2)cc1 | inconclusive: -34.4%
45 | CCOC(=O)c1nn(-c2ccc(F)cc2)c(-c2ccccc2)c1C(=O)c1ccccc1 | inactive: 40.6%
46 | CC(=O)Oc1ccc2c(c1)OC(c1ccccc1)CC21CC(C)(C)NC(=S)N1 (centres undefined) | inconclusive: -33.2%
47 | CC(C)c1nc(SCC(=O)c2ccccc2)c2c(=O)n(C)c(=O)n(C)c2n1 | inconclusive: -56.9%
48 | CCCN1C(=O)c2ccc(C(=O)Nc3cc(C)on3)cc2C1=O | inconclusive: -54.8%
49 | CCNc1ccc(S(=O)(=O)N(C)C)cc1NCC(=O)Nc1ccc(F)c(Cl)c1 | inconclusive: -46.4%
50 | O=C(COC(=O)/C=C/c1ccc2c(c1)OCO2)Nc1ccc(S(=O)(=O)N2CCCC2)cc1 | inconclusive: -40.6%
51 | CSc1nc(C)cc(/C=C\c2ccccc2)c1C#N | inconclusive: -55.2%
52 | COc1cc2c(=O)n(Cc3ccccc3)c(=O)n(CC(=O)NCC3CCCO3)c2cc1OC (centres undefined) | inconclusive: -43.7%
53 | Cn1c(=O)c2c(n(C)c1=O)=NC1(CCCCC1)N=2 | inconclusive: -68%
54 | CCN1CCN(CCCNC(=O)C2c3ccccc3C(=O)N(C)C2c2ccc(OC)cc2)CC1 (centres undefined) | inactive: -19.5%
55 | O=C(O)c1cccc(CSc2nnc(-c3ccco3)o2)c1 | inactive: 53.9%
56 | C[n+]1ccc(/C=C/c2c[nH]c3ccccc23)cc1 | inconclusive: -69.5%
57 | CC(CCc1ccccc1)NC(=O)C(=O)Nc1ccccc1 (centres undefined) | inconclusive: -43.3%
58 | NS(=O)(=O)c1ccc(NC(=O)CSc2nnc(-c3cnccn3)n2-c2ccccc2)cc1 | inactive: -16.3%
59 | CC(=O)c1ccc(NC(=O)CCCN2C(=O)/C(=C/C(C)=C/c3ccccc3)SC2=S)cc1 | inconclusive: -41.7%

As entered above.
activity change (PNC), negative = inhibition with Cc1cccc(N2CCN(C(=O)C(C)n3nc(C)n4c(cc5occc54)c3=O)CC2)c1C (centres undefined) reads inactive: 34.8%
activity change (PNC), negative = inhibition with O=C(c1ccccc1)N1CCN(Cc2c[nH]c3ccccc23)CC1 reads inactive: 56.1%
activity change (PNC), negative = inhibition with CCCCCc1nnc(NC(=O)Cn2cnc3ccccc3c2=O)s1 reads active: -111%
